Experimental data taken from the supplement of paper PMC10849652.
Some of the results follow. Residues, ends and D or L forms follow the SMILES beside them. *: point of attachment. Cbz = O=C(OCc1ccccc1)*

Sequences of proteins named here, by UniProt entry; tags and fusion partners are left off. A change or cut given only in a name is not applied to a line headed by its entry.
UniProt O15260: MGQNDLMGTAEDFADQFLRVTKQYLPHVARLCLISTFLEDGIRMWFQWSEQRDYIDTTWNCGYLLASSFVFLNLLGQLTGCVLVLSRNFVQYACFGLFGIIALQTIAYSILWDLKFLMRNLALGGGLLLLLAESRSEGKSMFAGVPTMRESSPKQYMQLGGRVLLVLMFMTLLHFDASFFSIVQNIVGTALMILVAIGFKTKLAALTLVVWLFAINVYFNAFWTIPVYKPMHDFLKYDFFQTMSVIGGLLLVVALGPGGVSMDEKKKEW
UniProt Q6P1N9: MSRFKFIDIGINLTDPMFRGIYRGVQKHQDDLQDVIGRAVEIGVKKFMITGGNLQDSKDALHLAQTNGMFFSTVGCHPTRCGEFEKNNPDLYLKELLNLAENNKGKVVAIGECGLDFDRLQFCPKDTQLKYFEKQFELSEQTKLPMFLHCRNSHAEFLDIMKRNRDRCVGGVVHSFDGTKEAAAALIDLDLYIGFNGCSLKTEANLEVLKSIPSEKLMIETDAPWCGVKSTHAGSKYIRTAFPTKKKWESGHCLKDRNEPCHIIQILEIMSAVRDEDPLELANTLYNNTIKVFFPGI
UniProt O75410: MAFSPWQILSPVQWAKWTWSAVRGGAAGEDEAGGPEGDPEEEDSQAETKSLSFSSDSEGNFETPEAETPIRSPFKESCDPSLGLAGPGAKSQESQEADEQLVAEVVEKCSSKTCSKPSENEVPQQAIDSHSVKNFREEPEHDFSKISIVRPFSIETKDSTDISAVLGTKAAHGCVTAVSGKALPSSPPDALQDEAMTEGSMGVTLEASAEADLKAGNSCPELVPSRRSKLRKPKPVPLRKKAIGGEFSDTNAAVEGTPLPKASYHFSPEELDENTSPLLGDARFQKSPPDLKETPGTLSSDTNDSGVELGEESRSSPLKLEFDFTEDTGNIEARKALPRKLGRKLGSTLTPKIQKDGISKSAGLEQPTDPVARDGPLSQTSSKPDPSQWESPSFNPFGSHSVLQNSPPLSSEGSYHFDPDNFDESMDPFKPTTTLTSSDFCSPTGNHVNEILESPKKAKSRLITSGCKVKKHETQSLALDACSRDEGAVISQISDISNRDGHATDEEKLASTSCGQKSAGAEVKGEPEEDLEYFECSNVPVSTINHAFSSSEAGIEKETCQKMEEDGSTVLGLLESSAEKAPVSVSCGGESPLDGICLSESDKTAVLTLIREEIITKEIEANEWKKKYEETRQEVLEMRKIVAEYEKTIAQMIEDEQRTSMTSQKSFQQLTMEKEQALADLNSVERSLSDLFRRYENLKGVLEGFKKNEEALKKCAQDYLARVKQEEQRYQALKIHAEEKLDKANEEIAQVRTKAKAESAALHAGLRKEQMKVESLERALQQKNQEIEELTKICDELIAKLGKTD
UniProt Q8NBJ7: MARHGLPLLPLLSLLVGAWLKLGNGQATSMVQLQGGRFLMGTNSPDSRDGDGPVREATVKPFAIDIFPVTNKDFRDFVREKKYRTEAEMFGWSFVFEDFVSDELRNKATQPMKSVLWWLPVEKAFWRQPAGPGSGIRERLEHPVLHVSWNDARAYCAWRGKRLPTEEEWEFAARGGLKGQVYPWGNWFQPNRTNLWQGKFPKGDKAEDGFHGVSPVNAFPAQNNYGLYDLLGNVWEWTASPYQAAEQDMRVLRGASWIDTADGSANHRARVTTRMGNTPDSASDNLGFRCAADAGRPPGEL
UniProt O75528: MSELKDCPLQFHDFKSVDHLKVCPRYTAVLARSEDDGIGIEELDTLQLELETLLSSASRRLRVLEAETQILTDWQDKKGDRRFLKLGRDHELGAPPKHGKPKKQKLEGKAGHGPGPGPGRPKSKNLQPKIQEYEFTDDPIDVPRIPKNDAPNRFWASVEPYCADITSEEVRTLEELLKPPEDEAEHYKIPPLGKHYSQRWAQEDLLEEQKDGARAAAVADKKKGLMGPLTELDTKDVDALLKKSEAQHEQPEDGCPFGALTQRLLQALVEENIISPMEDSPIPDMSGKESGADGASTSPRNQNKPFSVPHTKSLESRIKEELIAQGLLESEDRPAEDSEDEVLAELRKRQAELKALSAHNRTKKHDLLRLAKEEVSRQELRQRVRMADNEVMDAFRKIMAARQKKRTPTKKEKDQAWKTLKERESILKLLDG
UniProt O43760: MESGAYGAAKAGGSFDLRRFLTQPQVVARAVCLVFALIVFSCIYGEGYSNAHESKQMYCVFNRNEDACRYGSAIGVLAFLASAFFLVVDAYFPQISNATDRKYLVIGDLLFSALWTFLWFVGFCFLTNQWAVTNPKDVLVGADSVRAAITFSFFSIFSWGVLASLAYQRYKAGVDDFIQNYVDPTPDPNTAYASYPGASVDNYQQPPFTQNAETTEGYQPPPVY
UniProt Q9NRL3: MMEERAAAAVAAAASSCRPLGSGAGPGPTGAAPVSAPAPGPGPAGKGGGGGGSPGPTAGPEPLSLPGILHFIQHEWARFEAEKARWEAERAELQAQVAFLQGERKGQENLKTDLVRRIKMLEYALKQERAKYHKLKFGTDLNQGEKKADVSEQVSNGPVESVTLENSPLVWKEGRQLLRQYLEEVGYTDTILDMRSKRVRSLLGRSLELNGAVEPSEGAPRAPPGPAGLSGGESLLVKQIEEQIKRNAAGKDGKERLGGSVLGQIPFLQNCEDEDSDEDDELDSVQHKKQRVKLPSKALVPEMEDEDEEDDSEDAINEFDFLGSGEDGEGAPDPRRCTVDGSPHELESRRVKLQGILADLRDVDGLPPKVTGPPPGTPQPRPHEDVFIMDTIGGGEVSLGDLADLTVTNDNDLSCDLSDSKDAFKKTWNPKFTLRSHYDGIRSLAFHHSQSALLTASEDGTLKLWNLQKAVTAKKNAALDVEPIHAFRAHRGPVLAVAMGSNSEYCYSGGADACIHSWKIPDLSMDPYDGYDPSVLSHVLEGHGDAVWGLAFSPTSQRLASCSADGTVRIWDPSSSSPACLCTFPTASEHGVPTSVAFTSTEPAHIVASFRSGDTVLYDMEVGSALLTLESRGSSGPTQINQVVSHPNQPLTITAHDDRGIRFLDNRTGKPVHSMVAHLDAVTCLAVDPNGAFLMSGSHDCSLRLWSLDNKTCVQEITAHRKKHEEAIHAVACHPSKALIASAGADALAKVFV
UniProt Q9NVG8: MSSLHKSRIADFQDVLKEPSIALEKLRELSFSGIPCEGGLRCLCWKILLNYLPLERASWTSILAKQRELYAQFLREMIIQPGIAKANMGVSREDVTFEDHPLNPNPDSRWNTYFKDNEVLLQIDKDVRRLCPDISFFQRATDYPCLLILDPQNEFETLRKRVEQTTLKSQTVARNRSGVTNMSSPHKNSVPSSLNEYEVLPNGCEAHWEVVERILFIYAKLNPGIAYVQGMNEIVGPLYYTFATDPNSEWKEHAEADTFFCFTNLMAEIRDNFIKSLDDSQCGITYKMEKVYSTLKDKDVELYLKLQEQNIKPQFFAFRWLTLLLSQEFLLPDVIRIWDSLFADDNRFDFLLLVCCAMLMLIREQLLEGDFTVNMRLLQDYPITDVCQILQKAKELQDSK
UniProt O00186: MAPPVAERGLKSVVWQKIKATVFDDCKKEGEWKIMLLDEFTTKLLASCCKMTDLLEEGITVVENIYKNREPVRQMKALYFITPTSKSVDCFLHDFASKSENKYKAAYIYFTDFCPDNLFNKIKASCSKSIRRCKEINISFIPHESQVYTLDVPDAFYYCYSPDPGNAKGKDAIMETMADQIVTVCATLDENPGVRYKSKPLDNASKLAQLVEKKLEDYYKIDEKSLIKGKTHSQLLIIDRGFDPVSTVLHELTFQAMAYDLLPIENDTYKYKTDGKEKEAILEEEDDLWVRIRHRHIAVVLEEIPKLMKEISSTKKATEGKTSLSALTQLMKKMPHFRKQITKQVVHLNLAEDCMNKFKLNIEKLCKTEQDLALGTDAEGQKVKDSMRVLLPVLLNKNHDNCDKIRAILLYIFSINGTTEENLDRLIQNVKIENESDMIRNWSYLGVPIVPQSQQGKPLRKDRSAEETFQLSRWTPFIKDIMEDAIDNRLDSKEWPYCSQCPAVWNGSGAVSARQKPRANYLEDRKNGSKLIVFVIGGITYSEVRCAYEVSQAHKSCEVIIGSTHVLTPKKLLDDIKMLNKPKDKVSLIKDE
UniProt P26639: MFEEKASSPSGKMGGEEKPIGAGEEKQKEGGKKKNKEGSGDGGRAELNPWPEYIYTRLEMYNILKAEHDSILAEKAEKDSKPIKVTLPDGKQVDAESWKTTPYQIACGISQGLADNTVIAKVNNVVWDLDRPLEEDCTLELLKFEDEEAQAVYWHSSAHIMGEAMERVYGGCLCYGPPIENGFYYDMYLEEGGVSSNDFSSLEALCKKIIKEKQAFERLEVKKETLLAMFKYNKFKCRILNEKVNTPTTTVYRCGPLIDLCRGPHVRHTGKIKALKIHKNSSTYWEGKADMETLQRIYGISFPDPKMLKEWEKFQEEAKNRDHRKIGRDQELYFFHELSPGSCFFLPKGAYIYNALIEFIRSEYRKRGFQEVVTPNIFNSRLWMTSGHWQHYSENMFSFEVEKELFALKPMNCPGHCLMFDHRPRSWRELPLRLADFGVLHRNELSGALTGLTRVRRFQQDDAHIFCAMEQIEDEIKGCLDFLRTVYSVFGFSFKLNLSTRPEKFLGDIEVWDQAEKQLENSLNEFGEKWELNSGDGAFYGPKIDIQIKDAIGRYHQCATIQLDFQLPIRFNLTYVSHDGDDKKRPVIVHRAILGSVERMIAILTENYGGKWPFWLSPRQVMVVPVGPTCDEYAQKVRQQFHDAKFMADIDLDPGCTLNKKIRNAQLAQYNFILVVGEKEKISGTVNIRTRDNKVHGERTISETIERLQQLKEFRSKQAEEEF
UniProt Q96I99: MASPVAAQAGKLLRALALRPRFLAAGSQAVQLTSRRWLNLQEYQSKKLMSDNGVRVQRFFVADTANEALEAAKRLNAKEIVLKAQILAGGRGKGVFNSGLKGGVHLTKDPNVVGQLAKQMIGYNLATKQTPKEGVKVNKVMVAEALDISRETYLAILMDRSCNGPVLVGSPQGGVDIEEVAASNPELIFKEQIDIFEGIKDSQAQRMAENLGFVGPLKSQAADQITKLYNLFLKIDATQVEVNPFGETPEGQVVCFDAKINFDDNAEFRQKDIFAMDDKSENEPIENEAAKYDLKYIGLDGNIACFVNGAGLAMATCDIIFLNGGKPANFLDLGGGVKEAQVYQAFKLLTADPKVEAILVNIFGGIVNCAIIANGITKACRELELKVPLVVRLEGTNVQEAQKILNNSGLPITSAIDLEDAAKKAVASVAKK
UniProt Q15633: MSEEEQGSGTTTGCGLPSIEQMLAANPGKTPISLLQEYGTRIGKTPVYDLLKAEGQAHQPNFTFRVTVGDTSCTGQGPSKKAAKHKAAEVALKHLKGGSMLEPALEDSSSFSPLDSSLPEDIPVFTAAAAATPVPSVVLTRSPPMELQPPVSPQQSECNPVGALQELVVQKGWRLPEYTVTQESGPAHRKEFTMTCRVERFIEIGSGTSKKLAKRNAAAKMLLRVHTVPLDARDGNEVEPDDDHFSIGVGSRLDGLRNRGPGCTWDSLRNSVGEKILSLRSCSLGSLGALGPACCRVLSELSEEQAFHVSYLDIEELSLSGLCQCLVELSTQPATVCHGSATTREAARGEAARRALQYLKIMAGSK
UniProt P37837: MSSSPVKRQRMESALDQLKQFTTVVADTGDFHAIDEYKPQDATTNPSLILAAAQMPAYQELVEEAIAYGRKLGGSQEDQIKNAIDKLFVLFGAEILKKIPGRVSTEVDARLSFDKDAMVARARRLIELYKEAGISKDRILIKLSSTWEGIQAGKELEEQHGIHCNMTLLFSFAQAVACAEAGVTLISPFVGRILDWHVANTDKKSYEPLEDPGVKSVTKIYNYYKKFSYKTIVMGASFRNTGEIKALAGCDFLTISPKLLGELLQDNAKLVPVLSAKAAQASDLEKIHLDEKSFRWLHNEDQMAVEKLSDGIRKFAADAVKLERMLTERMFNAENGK
UniProt Q15750: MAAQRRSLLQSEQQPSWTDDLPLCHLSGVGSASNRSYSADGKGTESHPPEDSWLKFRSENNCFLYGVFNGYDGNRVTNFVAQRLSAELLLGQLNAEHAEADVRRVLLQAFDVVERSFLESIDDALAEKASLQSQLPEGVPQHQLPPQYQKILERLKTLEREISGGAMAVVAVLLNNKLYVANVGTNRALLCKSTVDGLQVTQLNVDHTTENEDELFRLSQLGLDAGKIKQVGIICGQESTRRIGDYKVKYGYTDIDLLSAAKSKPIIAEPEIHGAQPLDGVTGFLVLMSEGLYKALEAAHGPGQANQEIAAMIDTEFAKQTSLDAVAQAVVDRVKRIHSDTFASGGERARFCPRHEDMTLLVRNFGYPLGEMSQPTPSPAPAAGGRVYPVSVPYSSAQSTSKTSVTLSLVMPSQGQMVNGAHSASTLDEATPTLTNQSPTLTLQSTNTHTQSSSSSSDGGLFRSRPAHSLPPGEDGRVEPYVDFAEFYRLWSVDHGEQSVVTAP

Legend:
Assay in all cases: log2 fold change, soluble protein after heating vs DMSO (PISA); higher = thermal stabilisation; K562 cells, 10 uM, 30 min; active = over 0.2 and 3.5 SD of the protein, either way, in both replicates (recomputed)
erlotinib = compound: C#Cc1cccc(Nc2ncnc3cc(OCCOC)c(OCCOC)cc23)c1 [erlotinib]
How it was run: (§1)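 K562 cells at 2×10^6 cells/mL were treated for 30 min with 10 μM compound, and aliquots were heated for 3 min over 48°C-58°C before pooling. Extraction used PBS with 0.5% NP-40 at 4°C, and soluble protein was the supernatant after 21,000xg for 90 min, measured by TMTpro 16plex LC-MS/MS with channel sums equalised. Thermal stability values, relative to control samples and from duplicates, are log2 fold changes.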

[1] = compound: C/C(=N\NC(=O)C1=CC(=CC=C1)S(=O)(=O)N2CCOCC2)/C3=C(C=CC(=C3)Cl)O
How it was run: as §1

[2] = compound: C1=CC(=C(C=C1Cl)C2=NC3=NC=CN=C3C(=N2)NC4=CC=NC=C4)F
How it was run: as §1

[3] = compound: C1=CC(=CC=C1C2=NC3=C(N2)C=C(C=C3)C(=O)N)OC4=CC=C(C=C4)Cl
How it was run: as §1

[4] = compound: C1=CC2=C(C=CC(=C2)/C=C\3/C(=O)NC(=NCC4=CC=CS4)S3)N=C1
How it was run: as §1

[5] = compound: C1=CC2=NC=CN=C2C=C1/C=C/3\C(=O)NC(=O)S3
How it was run: as §1

[6] = compound: C1=CC=C(C=C1)C2=NC(=C(N2)C3=CC=NC=C3)C4=CC(=C(C=C4)Cl)O
How it was run: as §1

[7] = compound: C1=CC=C2C(=C1)C3=NNC4=CC=CC(=C43)C2=O
How it was run: as §1

[8] = compound: C1CCN(C1)C(=O)NC2=CC=CC(=C2)NC3=NC=C(C(=N3)NCCC4=CN=CN4)Br
How it was run: as §1

[9] = compound: C1CN(CCC1(CC2=CC=C(C=C2)Cl)N)C3=NC=NC4=C3C=CN4
How it was run: as §1

IRAK-1-4 Inhibitor I = compound: C1COCCN1CCN2C3=CC=CC=C3N=C2NC(=O)C4=CC(=CC=C4)[N+](=O)[O-] [IRAK-1-4 Inhibitor I]
How it was run: as §1

ibrutinib = compound: C=CC(=O)N1CCC[C@@H](n2nc(-c3ccc(Oc4ccccc4)cc3)c3c(N)ncnc32)C1 [ibrutinib]
How it was run: as §1

[10] = compound: CC(=O)c1cnc2ccc(-c3cc(Cl)c(O)c(Cl)c3)nc2c1N[C@H]1CC[C@H](CN(C)C)CC1
How it was run: as §1

ralimetinib = compound: CC(C)(C)Cn1c(N)nc2ccc(-c3[nH]c(C(C)(C)C)nc3-c3ccc(F)cc3)nc21 [ralimetinib]
How it was run: as §1

[11] = compound: CC(C)(O)CC(=O)NCCn1ccc2ncnc(Nc3ccc(Oc4cccc(C(F)(F)F)c4)c(Cl)c3)c21
How it was run: as §1

[12] = compound: CC(C)C1=C2N=C(C=C(N2N=C1)NCC3=CC=CC=C3)NCCCCCCN
How it was run: as §1

[13] = compound: CC(C)C[C@@H](C=O)NC(=O)[C@H](CC(C)C)NC(=O)[C@H](CC(C)C)NC(=O)OCc1ccccc1
How it was run: as §1

pinometostat = compound: CC(C)N(C[C@H]1O[C@@H](n2cnc3c(N)ncnc32)[C@H](O)[C@@H]1O)[C@H]1C[C@@H](CCc2nc3cc(C(C)(C)C)ccc3[nH]2)C1 [pinometostat]
How it was run: as §1

[14] = compound: CC1=C(C(CC(=O)N1)C2=CC=C(C=C2)C(F)(F)F)C(=O)NC3=C(C=C4C(=C3)C=NN4)F
How it was run: as §1

[15] = compound: CC1=C(C2=C(C=C1)C(=O)C3=CC=CC=C3N2CCCN)C
How it was run: as §1

Measured: log2 fold change

SURF4 (UniProt O15260)
inactive: erlotinib 0.017 | [1] -0.013 | [2] 0.033 | [3] 0.031 | [4] -0.014 | [5] 0.061 | [6] -0.023 | [7] -0.009 | [8] -0.044 | [9] 0.047 | IRAK-1-4 Inhibitor I 0.067 | ibrutinib 0.037 | [10] -0.047 | ralimetinib -0.062 | [11] -0.017 | [12] 0.036 | [13] -0.045 | pinometostat -0.036 | [14] -0.011 | [15] 0.059

STX18 (UniProt Q9P2W9)
inactive: erlotinib -0.009 | [1] 0.073 | [2] -0.03 | [3] 0.02 | [4] 0.031 | [5] -0.01 | [6] -0.023 | [7] 0.019 | [8] -0.017 | [9] 0.035 | IRAK-1-4 Inhibitor I -0.025 | ibrutinib -0.019 | [10] -0.079 | ralimetinib 0.04 | [11] -0.006 | [12] -0.148 | [13] 0.066 | pinometostat 0.057 | [14] -0.04 | [15] 0.083

TATDN1 (UniProt Q6P1N9)
inactive: erlotinib -0.062 | [1] -0.089 | [2] -0.059 | [3] 0.02 | [4] -0.013 | [5] 0.047 | [6] -0.016 | [7] 0.013 | [8] 0.073 | [9] 0.076 | IRAK-1-4 Inhibitor I 0.106 | ibrutinib 0.005 | [10] -0.008 | ralimetinib -0.032 | [11] 0.018 | [12] 0.018 | [13] -0.003 | pinometostat -0.012 | [14] 0.011 | [15] -0.052

TACC1 isoform 2 (UniProt O75410)
inactive: erlotinib 0.025 | [1] -0.002 | [2] 0.043 | [3] -0.006 | [4] 0.021 | [5] 0.05 | [6] -0.033 | [7] -0.056 | [8] -0.015 | [9] 0.006 | IRAK-1-4 Inhibitor I 0.042 | ibrutinib -0.034 | [10] 0.123 | ralimetinib -0.025 | [11] -0.007 | [12] -0.049 | [13] 0.022 | pinometostat -0.008 | [14] 0.005 | [15] 0

SUMF2 (UniProt Q8NBJ7)
inactive: erlotinib 0.005 | [1] -0.026 | [2] -0.068 | [3] -0.014 | [4] -0.028 | [5] 0.012 | [6] -0.033 | [7] 0.038 | [8] 0.031 | [9] -0.005 | IRAK-1-4 Inhibitor I 0.032 | ibrutinib -0.014 | [10] 0.001 | ralimetinib -0.042 | [11] 0.044 | [12] -0.062 | [13] 0.05 | pinometostat 0.032 | [14] 0.014 | [15] -0.073

SUB1 (UniProt P53999)
inactive: erlotinib 0.029 | [1] -0.033 | [2] -0.011 | [3] -0.04 | [4] -0.003 | [5] 0.001 | [6] -0.065 | [7] 0.053 | [8] 0.017 | [9] 0.065 | IRAK-1-4 Inhibitor I 0.098 | ibrutinib -0.009 | [10] -0.046 | ralimetinib -0.027 | [11] 0.038 | [12] 0.039 | [13] 0.004 | pinometostat 0.018 | [14] 0.009 | [15] 0.019

TADA3 (UniProt O75528)
inactive: erlotinib -0.015 | [1] 0.035 | [2] -0.019 | [3] 0.016 | [4] 0.015 | [5] 0.034 | [6] -0.017 | [7] -0.003 | [8] 0.006 | [9] 0.01 | IRAK-1-4 Inhibitor I 0.018 | ibrutinib -0.038 | [10] -0.01 | ralimetinib -0.002 | [11] 0.026 | [12] -0.016 | [13] -0.045 | pinometostat 0.023 | [14] 0.027 | [15] 0.045

SYNGR2 (UniProt O43760)
inactive: erlotinib -0.001 | [1] 0.015 | [2] 0.033 | [3] 0.003 | [4] 0.124 | [5] 0.089 | [6] 0.039 | [7] -0.095 | [8] -0.012 | [9] 0.098 | IRAK-1-4 Inhibitor I 0.037 | ibrutinib -0.055 | [10] 0.009 | ralimetinib -0.124 | [11] -0.035 | [12] 0.05 | [13] 0.037 | pinometostat 0.022 | [14] -0.03 | [15] 0.097

STRN4 isoform 3 (UniProt Q9NRL3)
inactive: erlotinib 0.022 | [1] 0.068 | [2] 0.018 | [3] -0.024 | [4] 0 | [5] -0.011 | [6] 0.024 | [7] 0.043 | [8] -0.02 | [9] 0.038 | IRAK-1-4 Inhibitor I 0.003 | ibrutinib -0.063 | [10] -0.026 | ralimetinib 0.006 | [11] -0.061 | [12] 0.003 | [13] -0.006 | pinometostat 0.019 | [14] -0.067 | [15] -0.009

TBC1D13 (UniProt Q9NVG8)
inactive: erlotinib 0.049 | [1] -0.01 | [2] 0.027 | [3] 0.015 | [4] 0.065 | [5] 0.006 | [6] 0.029 | [7] -0.026 | [8] 0.003 | [9] 0.021 | IRAK-1-4 Inhibitor I 0.054 | ibrutinib 0.013 | [10] 0.016 | ralimetinib -0.045 | [11] -0.046 | [12] 0.006 | [13] -0.009 | pinometostat -0.026 | [14] 0.032 | [15] 0.016

STXBP3 (UniProt O00186)
inactive: erlotinib 0.078 | [1] 0.069 | [2] -0.044 | [3] -0.049 | [4] 0.018 | [5] 0.021 | [6] 0.015 | [7] 0.01 | [8] -0.027 | [9] -0.058 | IRAK-1-4 Inhibitor I -0.083 | ibrutinib -0.017 | [10] -0.046 | ralimetinib 0.114 | [11] -0.22 | [12] -0.271 | [13] 0.088 | pinometostat 0.039 | [14] 0.015 | [15] -0.012

Pulled one by one from the list above, 2 records:
STXBP3 (UniProt O00186)
inactive: erlotinib 0.078 | [1] 0.069 | [2] -0.044 | [3] -0.049 | [4] 0.018 | [5] 0.021 | [6] 0.015 | [7] 0.01 | [8] -0.027 | [9] -0.058 | IRAK-1-4 Inhibitor I -0.083 | ibrutinib -0.017 | [10] -0.046 | ralimetinib 0.114 | [11] -0.22 | [12] -0.271 | [13] 0.088 | pinometostat 0.039 | [14] 0.015 | [15] -0.012

STRN4 isoform 3 (UniProt Q9NRL3)
inactive: erlotinib 0.022 | [1] 0.068 | [2] 0.018 | [3] -0.024 | [4] 0 | [5] -0.011 | [6] 0.024 | [7] 0.043 | [8] -0.02 | [9] 0.038 | IRAK-1-4 Inhibitor I 0.003 | ibrutinib -0.063 | [10] -0.026 | ralimetinib 0.006 | [11] -0.061 | [12] 0.003 | [13] -0.006 | pinometostat 0.019 | [14] -0.067 | [15] -0.009

The list goes on:

TARS1 (UniProt P26639)
inactive: erlotinib 0.018 | [1] 0.074 | [2] 0.044 | [3] 0.019 | [4] 0.033 | [5] -0.005 | [6] 0.028 | [7] 0.027 | [8] 0.011 | [9] -0.016 | IRAK-1-4 Inhibitor I -0.004 | ibrutinib 0.006 | [10] -0.005 | ralimetinib 0.022 | [11] -0.062 | [12] -0.156 | [13] -0.053 | pinometostat 0.01 | [14] 0.011 | [15] -0.007

SUCLG2 (UniProt Q96I99)
inactive: erlotinib 0.032 | [1] 0.048 | [2] 0.087 | [3] 0.011 | [4] 0.045 | [5] -0.025 | [6] 0.052 | [7] 0.014 | [8] -0.003 | [9] 0.026 | IRAK-1-4 Inhibitor I 0.067 | ibrutinib 0.012 | [10] -0.026 | ralimetinib -0.045 | [11] -0.062 | [12] -0.006 | [13] 0.027 | pinometostat -0.041 | [14] -0.02 | [15] 0.059

TARBP2 (UniProt Q15633)
inactive: erlotinib 0.058 | [1] -0.061 | [2] -0.194 | [3] 0.027 | [4] 0.032 | [5] 0.061 | [6] 0.047 | [7] 0.02 | [8] 0.106 | [9] -0.181 | IRAK-1-4 Inhibitor I -0.079 | ibrutinib -0.024 | [10] -0.025 | ralimetinib 0.327 | [11] 0.064 | [12] 0.013 | [13] 0.022 | pinometostat 0.316 | [14] 0.027 | [15] -0.073

TALDO1 (UniProt P37837)
inactive: erlotinib -0.009 | [1] 0.021 | [2] 0.063 | [3] 0.026 | [4] -0.024 | [5] -0.018 | [6] -0.004 | [7] 0.074 | [8] 0.01 | [9] 0.017 | IRAK-1-4 Inhibitor I 0.041 | ibrutinib -0.013 | [10] -0.022 | ralimetinib -0.046 | [11] 0.026 | [12] -0.034 | [13] -0.007 | pinometostat -0.02 | [14] 0.003 | [15] 0.01

TAB1 (UniProt Q15750)
inactive: erlotinib 0.039 | [1] 0.059 | [2] 0.06 | [3] -0.047 | [4] 0.068 | [5] 0 | [6] -0.069 | [7] 0.028 | [8] -0.027 | [9] -0.176 | IRAK-1-4 Inhibitor I -0.12 | ibrutinib -0.212 | [10] -0.139 | ralimetinib 0.071 | [11] -0.125 | [12] -0.018 | [13] 0.031 | pinometostat 0.025 | [14] -0.017 | [15] -0.009
